Values quoted from earlier work in patent publication US11197933B2, “Polysubunit opioid prodrugs resistant to overdose and abuse” (Elysium Therapeutics, Inc., priority 2017, dated 2021).
Where a name gives a salt, the structure may show the parent alone.

Conditions: cited from earlier work

SMILES: O=C1CC[C@@]2(O)[C@H]3Cc4ccc(O)c5c4[C@@]2(CCN3CC2CC2)[C@H]1O5 [hydrochloride salt of naltrexone, naltrexone]
- Solubility in water: about 100 mg/mL
